Experimental data from the supplement of paper PMC10849652.
Some of the results follow.

By UniProt entry, the sequences of proteins in these tests, tags left out. Where a name states a change or a piece, a line headed by the entry shows the natural chain unless it says otherwise.
UniProt Q8IZQ5, whole entry, looked up: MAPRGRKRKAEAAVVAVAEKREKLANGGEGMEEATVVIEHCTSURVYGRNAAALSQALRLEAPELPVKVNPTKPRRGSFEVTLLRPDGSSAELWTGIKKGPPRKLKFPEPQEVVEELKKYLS
UniProt Q9UGP8: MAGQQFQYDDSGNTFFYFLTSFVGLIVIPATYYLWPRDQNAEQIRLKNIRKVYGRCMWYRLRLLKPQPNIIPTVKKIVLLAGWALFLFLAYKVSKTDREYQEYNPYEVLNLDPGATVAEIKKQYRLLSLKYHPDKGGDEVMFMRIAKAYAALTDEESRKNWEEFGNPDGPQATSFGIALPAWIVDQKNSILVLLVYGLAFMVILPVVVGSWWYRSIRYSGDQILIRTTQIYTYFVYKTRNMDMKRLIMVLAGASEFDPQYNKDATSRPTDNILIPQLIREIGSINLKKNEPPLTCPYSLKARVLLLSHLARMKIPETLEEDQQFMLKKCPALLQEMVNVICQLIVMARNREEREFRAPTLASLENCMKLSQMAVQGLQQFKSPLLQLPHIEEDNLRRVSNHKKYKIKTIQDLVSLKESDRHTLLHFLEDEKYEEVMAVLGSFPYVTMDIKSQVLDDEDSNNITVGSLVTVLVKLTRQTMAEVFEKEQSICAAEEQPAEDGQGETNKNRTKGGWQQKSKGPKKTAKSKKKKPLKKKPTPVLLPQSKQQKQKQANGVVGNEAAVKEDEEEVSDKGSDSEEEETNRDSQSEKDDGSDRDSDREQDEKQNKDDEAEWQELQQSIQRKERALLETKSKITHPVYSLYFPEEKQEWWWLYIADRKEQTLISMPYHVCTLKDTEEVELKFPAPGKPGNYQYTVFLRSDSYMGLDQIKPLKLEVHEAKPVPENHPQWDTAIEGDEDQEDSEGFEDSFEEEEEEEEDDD
UniProt P67812: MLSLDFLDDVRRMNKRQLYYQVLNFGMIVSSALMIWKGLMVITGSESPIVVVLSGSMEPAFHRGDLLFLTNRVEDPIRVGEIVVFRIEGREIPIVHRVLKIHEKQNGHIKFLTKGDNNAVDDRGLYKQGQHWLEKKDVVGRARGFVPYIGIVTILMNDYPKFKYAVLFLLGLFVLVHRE
UniProt Q9Y3A5: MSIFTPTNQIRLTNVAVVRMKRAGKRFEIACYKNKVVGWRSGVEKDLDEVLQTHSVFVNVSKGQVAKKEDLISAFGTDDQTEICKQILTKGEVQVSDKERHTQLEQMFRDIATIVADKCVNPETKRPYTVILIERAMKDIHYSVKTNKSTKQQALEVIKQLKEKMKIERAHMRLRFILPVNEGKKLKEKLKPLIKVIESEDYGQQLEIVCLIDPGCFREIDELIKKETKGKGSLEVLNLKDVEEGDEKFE
UniProt P61619, whole entry, looked up: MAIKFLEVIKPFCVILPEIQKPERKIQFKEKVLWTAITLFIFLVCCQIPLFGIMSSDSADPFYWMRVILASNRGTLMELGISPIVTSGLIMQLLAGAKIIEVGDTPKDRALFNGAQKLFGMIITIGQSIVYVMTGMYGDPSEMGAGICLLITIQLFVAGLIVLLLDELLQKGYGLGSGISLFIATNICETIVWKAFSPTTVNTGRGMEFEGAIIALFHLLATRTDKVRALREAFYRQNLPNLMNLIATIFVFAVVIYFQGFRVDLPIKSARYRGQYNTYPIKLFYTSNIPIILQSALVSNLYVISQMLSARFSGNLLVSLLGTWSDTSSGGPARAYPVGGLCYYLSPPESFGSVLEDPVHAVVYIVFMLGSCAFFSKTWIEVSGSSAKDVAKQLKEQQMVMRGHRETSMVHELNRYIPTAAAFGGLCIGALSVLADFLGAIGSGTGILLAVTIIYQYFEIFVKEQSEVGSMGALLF
UniProt O00560: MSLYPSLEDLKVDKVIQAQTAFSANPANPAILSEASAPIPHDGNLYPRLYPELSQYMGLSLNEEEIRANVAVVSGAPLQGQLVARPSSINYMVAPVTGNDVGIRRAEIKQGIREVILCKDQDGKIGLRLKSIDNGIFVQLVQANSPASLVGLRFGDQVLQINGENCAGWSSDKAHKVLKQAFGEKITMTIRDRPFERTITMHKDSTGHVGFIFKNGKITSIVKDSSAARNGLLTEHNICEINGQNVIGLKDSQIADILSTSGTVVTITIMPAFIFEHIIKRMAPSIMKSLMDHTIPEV
UniProt O75396: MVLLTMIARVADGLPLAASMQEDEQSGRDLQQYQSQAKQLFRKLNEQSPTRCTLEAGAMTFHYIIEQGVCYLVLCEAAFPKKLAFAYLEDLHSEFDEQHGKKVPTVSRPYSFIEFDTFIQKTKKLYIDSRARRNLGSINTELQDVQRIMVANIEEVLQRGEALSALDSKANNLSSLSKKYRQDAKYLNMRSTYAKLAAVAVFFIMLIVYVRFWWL
UniProt Q9HD40: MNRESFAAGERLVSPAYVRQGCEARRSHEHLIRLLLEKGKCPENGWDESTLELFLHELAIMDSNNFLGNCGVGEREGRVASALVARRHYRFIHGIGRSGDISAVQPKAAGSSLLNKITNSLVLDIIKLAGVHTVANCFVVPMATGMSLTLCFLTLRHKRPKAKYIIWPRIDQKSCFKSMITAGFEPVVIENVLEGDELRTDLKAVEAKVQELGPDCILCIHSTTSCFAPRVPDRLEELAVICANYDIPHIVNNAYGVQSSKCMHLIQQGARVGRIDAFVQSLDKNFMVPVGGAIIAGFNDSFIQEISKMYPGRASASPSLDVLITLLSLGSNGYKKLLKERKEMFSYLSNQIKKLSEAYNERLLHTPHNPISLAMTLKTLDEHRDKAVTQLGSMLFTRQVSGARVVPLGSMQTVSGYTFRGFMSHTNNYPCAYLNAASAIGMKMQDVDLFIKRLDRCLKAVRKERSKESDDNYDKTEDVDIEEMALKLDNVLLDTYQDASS
UniProt O43819: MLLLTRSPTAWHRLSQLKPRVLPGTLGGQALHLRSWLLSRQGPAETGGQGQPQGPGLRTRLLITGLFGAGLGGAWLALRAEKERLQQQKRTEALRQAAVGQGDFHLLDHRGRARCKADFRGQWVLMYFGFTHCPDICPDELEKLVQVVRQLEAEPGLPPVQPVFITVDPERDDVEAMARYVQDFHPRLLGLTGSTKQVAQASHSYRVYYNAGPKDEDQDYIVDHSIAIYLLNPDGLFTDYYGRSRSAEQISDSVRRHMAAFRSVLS
UniProt Q9NR31: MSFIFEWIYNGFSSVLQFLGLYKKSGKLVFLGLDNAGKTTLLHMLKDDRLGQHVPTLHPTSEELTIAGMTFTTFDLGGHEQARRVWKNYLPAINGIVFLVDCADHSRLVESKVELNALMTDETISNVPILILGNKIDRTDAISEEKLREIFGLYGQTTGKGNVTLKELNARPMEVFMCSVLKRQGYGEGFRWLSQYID
UniProt Q99719: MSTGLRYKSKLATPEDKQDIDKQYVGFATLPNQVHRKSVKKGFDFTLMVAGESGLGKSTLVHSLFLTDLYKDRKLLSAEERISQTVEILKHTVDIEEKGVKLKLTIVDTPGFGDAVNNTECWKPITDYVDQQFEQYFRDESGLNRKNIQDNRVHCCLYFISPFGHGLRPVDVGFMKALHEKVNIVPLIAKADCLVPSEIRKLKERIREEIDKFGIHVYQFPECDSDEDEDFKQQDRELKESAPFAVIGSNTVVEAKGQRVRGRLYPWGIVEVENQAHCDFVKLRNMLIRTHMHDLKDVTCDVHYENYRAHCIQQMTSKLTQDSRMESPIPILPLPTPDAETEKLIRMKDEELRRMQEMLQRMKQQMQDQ
UniProt O00767: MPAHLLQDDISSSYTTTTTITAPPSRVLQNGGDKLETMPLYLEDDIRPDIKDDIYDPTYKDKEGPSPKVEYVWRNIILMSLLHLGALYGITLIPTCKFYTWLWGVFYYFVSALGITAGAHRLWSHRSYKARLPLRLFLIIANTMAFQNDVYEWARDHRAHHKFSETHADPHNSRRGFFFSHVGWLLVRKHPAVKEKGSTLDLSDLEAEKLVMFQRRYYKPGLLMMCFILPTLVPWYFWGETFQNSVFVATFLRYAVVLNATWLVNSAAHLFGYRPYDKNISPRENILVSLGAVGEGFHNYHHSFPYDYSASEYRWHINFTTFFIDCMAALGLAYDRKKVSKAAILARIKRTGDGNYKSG
UniProt Q9NRP4: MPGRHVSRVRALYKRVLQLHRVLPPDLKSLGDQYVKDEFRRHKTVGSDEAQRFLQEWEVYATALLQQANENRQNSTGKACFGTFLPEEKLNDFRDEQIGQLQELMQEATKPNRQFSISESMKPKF
UniProt O75880: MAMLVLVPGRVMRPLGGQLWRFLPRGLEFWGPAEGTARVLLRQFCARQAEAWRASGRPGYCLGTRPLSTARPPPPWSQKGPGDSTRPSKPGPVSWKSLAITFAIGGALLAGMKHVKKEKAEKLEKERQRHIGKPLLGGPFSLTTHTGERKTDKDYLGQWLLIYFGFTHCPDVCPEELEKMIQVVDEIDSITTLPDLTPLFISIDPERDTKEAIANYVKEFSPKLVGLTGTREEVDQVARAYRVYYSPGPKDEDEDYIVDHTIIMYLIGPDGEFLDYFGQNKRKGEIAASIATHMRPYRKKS
UniProt P31040: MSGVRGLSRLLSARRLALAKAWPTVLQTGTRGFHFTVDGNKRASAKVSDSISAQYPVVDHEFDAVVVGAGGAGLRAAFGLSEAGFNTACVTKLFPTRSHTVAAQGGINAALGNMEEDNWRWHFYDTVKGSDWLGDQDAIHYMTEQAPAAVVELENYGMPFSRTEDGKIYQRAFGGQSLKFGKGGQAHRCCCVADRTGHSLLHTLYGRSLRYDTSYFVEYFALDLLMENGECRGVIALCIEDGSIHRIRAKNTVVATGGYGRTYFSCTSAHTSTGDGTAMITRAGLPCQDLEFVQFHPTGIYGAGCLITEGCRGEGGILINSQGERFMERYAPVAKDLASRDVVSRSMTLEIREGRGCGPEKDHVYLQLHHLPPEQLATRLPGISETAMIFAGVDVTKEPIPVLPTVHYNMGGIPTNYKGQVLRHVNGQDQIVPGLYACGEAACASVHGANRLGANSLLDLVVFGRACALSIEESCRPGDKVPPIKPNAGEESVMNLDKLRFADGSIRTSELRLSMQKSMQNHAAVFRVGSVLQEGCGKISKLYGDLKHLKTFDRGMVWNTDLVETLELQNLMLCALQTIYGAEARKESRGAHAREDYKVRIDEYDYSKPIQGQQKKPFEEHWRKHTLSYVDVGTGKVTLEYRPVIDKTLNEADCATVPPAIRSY
UniProt Q9Y3Z3: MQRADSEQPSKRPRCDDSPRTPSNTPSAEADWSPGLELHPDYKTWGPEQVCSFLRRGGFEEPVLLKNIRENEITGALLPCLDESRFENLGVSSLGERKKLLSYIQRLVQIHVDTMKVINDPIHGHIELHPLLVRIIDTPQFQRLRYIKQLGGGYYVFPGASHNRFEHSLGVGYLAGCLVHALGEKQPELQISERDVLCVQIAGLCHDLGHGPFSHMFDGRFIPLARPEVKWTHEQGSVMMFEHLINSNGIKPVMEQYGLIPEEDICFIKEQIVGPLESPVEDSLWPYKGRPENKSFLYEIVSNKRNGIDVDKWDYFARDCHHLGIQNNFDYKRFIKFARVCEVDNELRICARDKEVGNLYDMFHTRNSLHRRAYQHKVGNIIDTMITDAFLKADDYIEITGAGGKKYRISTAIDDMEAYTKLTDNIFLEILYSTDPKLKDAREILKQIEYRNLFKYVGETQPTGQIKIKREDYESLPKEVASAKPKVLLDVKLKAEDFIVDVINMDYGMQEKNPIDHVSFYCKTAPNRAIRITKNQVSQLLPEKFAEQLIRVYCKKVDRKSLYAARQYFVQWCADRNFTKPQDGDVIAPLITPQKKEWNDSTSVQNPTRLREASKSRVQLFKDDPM
UniProt O43290: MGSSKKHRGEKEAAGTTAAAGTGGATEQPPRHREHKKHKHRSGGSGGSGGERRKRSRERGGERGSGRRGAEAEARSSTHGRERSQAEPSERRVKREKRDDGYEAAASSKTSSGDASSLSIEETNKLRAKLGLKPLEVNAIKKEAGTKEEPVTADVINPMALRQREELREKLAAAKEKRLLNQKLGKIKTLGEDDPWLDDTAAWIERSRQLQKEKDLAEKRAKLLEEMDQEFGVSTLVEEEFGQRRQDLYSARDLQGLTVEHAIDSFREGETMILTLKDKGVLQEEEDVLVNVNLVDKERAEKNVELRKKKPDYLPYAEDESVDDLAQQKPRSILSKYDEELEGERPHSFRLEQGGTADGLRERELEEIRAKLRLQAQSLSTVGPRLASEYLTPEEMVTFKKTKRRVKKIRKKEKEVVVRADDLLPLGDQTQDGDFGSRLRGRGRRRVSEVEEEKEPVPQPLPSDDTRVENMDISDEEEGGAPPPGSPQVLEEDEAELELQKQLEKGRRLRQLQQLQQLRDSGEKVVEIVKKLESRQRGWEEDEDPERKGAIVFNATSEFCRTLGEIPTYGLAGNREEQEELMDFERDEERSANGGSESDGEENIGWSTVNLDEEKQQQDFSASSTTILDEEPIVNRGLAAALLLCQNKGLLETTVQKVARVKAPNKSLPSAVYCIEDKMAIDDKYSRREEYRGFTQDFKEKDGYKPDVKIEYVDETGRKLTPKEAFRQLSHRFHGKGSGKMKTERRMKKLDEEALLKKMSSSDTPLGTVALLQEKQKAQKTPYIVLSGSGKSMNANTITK

Assays:
Assay in all cases: log2 fold change, soluble protein after heating vs DMSO (PISA); higher = thermal stabilisation; K562 lysate, 10 uM; active = over 0.2 and 3.5 SD of the protein, either way, in both replicates (recomputed)
[1] = compound: CN1CC[C@H](c2c(O)cc(O)c3c(=O)cc(-c4ccccc4Cl)oc23)[C@H](O)C1 [alvocidib]
Method in brief: (§1)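 Dounce homogenisation of K562 pellets in PBS pH 7.4 with 1 mM MgCl2 produced a crude extract, used at 1 mg/mL protein. Exposure to 10 μM compound lasted 30 min, and aliquots were then heated for 3 min across 48°C-58°C, pooled and brought to 0.5% NP-40 at 4°C. The supernatant after 21,000xg for 90 min was quantified by TMTpro 16plex LC-MS/MS with channel sums equalised. Duplicate values are given as log-two fold change in thermal stability relative to solvent controls.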

[2] = compound: CN1CCc2c(c3ccccc3n2Cc2ccc(C(=O)NO)cc2)C1 [Tubastatin A]
Method in brief: as §1

[3] = compound: CNC(=O)C1=CC=CC=C1NC2=NC(=NC=C2Cl)NC3=C(C=C(C=C3)N4CCOCC4)OC
Method in brief: as §1

[4] = compound: CNC(=O)c1ccc(Nc2ncc(C(F)(F)F)c(NCc3nccnc3N(C)S(C)(=O)=O)n2)cc1 [defactinib]
Method in brief: as §1

[5] = compound: CNc1nc(-c2ccc3c(N)n[nH]c3c2)cc(N2C[C@@H](C(=O)NC3CCCCC3)CC[C@H]2C)n1
Method in brief: as §1

[6] = compound: COC(=O)N[C@@H](C)CNc1nccc(-c2cn(C(C)C)nc2-c2cc(Cl)cc(NS(C)(=O)=O)c2F)n1 [encorafenib]
Method in brief: as §1

[7] = compound: COC(=O)[C@H](CCSC)NC(=O)C1=C(C=C(C=C1)NC[C@H](CS)N)C2=CC=CC=C2
Method in brief: as §1

[8] = compound: COc1cc(Nc2ncc3c(n2)-c2ccc(Cl)cc2C(c2c(F)cccc2OC)=NC3)ccc1C(=O)O [alisertib]
Method in brief: as §1

[9] = compound: COc1cc2nc(-c3cc(F)ccc3O)nc(N[C@@H]3CNC[C@H]3C(C)(C)O)c2cc1OC
Method in brief: as §1

[10] = compound: COc1cc2ncnc(Nc3ccc(F)c(Cl)c3)c2cc1OCCCN1CCOCC1 [gefitinib]
Method in brief: as §1

| Target | log2 fold change [1] | log2 fold change [2] | log2 fold change [3] | log2 fold change [4] | log2 fold change [5] | log2 fold change [6] | log2 fold change [7] | log2 fold change [8] | log2 fold change [9] | log2 fold change [10] |
| --- | --- | --- | --- | --- | --- | --- | --- | --- | --- | --- |
| SELENOH (UniProt Q8IZQ5) | inactive: 0.005 | inactive: 0.048 | inactive: 0.005 | inactive: -0.024 | inactive: 0.02 | inactive: 0.009 | inactive: 0.013 | inactive: -0.014 | inactive: -0.023 | inactive: 0.032 |
| SEC63 (UniProt Q9UGP8) | inactive: -0.024 | inactive: 0.033 | inactive: 0.016 | inactive: 0.011 | inactive: 0.012 | inactive: 0.009 | inactive: -0.09 | inactive: 0.005 | inactive: 0.014 | inactive: 0.017 |
| SEC11A (UniProt P67812) | inactive: 0.025 | inactive: 0.01 | inactive: -0.006 | inactive: -0.031 | inactive: -0.033 | inactive: 0.016 | inactive: -0.023 | inactive: 0.002 | inactive: 0.018 | inactive: 0.019 |
| SBDS (UniProt Q9Y3A5) | inactive: -0.018 | inactive: 0.046 | inactive: -0.006 | inactive: 0.038 | inactive: 0.032 | inactive: -0.038 | inactive: 0.01 | inactive: -0.001 | inactive: -0.014 | inactive: -0.01 |
| SEC16A isoform 5 (UniProt O15027) | inactive: -0.005 | inactive: -0.09 | inactive: 0.011 | inactive: -0.014 | inactive: -0.002 | inactive: 0.011 | inactive: 0.01 | inactive: -0.001 | inactive: 0.013 | inactive: 0.014 |
| SEC61A1 (UniProt P61619) | inactive: -0.051 | inactive: -0.016 | inactive: 0.01 | inactive: 0.024 | inactive: 0.077 | inactive: -0.045 | inactive: 0.027 | inactive: 0.01 | inactive: 0.026 | inactive: 0.041 |
| SDCBP (UniProt O00560) | inactive: 0.001 | inactive: 0.054 | inactive: 0.012 | inactive: -0.044 | inactive: 0.068 | inactive: 0.004 | inactive: -0.049 | inactive: 0.016 | inactive: -0.003 | inactive: -0.126 |
| SEC22B (UniProt O75396) | inactive: 0.004 | inactive: 0.023 | inactive: -0.002 | inactive: -0.02 | inactive: 0.001 | inactive: 0.03 | inactive: -0.121 | inactive: -0.02 | inactive: 0.027 | inactive: 0.008 |
| SEPSECS (UniProt Q9HD40) | inactive: -0.014 | inactive: 0.025 | inactive: 0.041 | inactive: -0.013 | inactive: -0.033 | inactive: 0.014 | inactive: -0.005 | inactive: -0.041 | inactive: 0.02 | inactive: 0.003 |
| SAP30BP (UniProt Q9UHR5) | inactive: -0.079 | inactive: 0.026 | inactive: -0.033 | inactive: 0.014 | inactive: 0.046 | inactive: 0.062 | inactive: -0.024 | inactive: -0.064 | inactive: 0.023 | inactive: 0.03 |
| SCAF1 (UniProt Q9H7N4) | inactive: 0.054 | inactive: 0.034 | inactive: -0.051 | inactive: 0.046 | inactive: 0.051 | inactive: -0.028 | inactive: -0.066 | inactive: 0.128 | inactive: -0.02 | inactive: 0.129 |
| SCO2 (UniProt O43819) | inactive: -0.009 | inactive: 0.039 | inactive: 0.073 | inactive: 0.008 | inactive: -0.007 | inactive: 0.027 | active: -0.607 | inactive: -0.115 | inactive: 0.046 | inactive: 0.114 |
| S100P (UniProt P25815) | inactive: 0.186 | inactive: 0.132 | inactive: 0.024 | inactive: 0.029 | inactive: 0.014 | inactive: 0.007 | inactive: -0.049 | inactive: 0.028 | inactive: -0.056 | inactive: -0.221 |
| SAR1A (UniProt Q9NR31) | inactive: -0.034 | inactive: 0.153 | inactive: 0.03 | inactive: 0.086 | inactive: 0.086 | inactive: 0.152 | inactive: 0.084 | inactive: 0.134 | inactive: 0.161 | inactive: 0.156 |
| SEC23IP (UniProt Q9Y6Y8) | inactive: -0.003 | inactive: -0.02 | inactive: -0.004 | inactive: -0.012 | inactive: -0.029 | inactive: 0.048 | inactive: 0.012 | inactive: 0.022 | inactive: -0.023 | inactive: -0.007 |
| SEPTIN5 (UniProt Q99719) | inactive: 0.039 | inactive: -0.014 | inactive: -0.014 | inactive: -0.026 | inactive: 0.013 | inactive: -0.005 | inactive: 0.004 | inactive: 0.002 | inactive: -0.026 | inactive: -0.021 |
| SEPHS2 (UniProt Q99611) | inactive: -0.031 | inactive: 0.02 | inactive: -0.024 | inactive: -0.008 | inactive: 0.026 | inactive: -0.019 | inactive: 0.049 | inactive: -0.014 | inactive: -0.01 | inactive: -0.006 |
| SCD (UniProt O00767) | inactive: -0.138 | inactive: -0.015 | inactive: -0.014 | inactive: -0.02 | inactive: -0.091 | inactive: -0.097 | inactive: 0.076 | inactive: 0.006 | inactive: 0.004 | inactive: 0.011 |
| SDHAF3 (UniProt Q9NRP4) | inactive: 0.005 | inactive: -0.08 | inactive: 0.089 | inactive: -0.013 | inactive: -0.097 | inactive: 0.047 | inactive: -0.108 | inactive: -0.029 | inactive: -0.001 | inactive: 0.009 |
| SART3, A0A499FI31 | inactive: 0.021 | inactive: -0.064 | inactive: 0.014 | inactive: 0.003 | inactive: -0.017 | inactive: -0.006 | inactive: 0.057 | inactive: -0.003 | inactive: 0.004 | inactive: 0.013 |
| SCO1 (UniProt O75880) | inactive: 0.002 | inactive: -0.031 | inactive: -0.051 | inactive: -0.004 | inactive: 0.053 | inactive: -0.004 | active: -0.57 | inactive: -0.096 | inactive: 0.014 | inactive: -0.015 |
| SCPEP1 (UniProt Q9HB40) | inactive: -0.034 | inactive: 0.107 | inactive: -0.011 | inactive: 0.004 | inactive: -0.017 | inactive: -0.023 | inactive: 0.117 | inactive: -0.016 | inactive: 0.011 | inactive: 0.006 |
| SEC24C (UniProt P53992) | inactive: 0.025 | inactive: -0.019 | inactive: 0.009 | inactive: -0.007 | inactive: 0.006 | inactive: 0.011 | inactive: 0.077 | inactive: -0.006 | inactive: 0.005 | inactive: -0.019 |
| SEPTIN5 (UniProt G3XAH0) | inactive: -0.008 | inactive: 0.047 | inactive: -0.075 | inactive: 0.034 | inactive: -0.021 | inactive: -0.031 | inactive: 0.004 | inactive: -0.068 | inactive: 0.015 | inactive: -0.019 |
| SDHA (UniProt P31040) | inactive: -0.004 | inactive: -0.012 | inactive: 0 | inactive: -0.04 | inactive: 0.002 | inactive: -0.023 | inactive: -0.04 | inactive: -0.023 | inactive: -0.014 | inactive: -0.031 |
| SAMHD1 (UniProt Q9Y3Z3) | inactive: -0.019 | inactive: -0.072 | inactive: 0.041 | inactive: -0.021 | inactive: -0.015 | inactive: 0 | inactive: 0.099 | inactive: -0.013 | inactive: 0.02 | inactive: 0.044 |
| SART1 (UniProt O43290) | inactive: 0.004 | inactive: -0.001 | inactive: 0.017 | inactive: 0.029 | inactive: 0.033 | inactive: 0.032 | inactive: -0.022 | inactive: -0.003 | inactive: -0.026 | inactive: -0.047 |
| SCRIB (UniProt Q14160) | inactive: -0.013 | inactive: -0.131 | inactive: 0 | inactive: 0 | inactive: 0.007 | inactive: 0.014 | inactive: 0.116 | inactive: 0.006 | inactive: 0.028 | inactive: 0.03 |
| SDHD (UniProt O14521) | inactive: 0.086 | inactive: -0.043 | inactive: 0.127 | inactive: 0.296 | inactive: 0.056 | inactive: 0.018 | inactive: -0.033 | inactive: -0.019 | inactive: -0.027 | inactive: -0.082 |

Complete entries from above. Values in the order: log2 fold change [1]	log2 fold change [2]	log2 fold change [3]	log2 fold change [4]	log2 fold change [5]	log2 fold change [6]	log2 fold change [7]	log2 fold change [8]	log2 fold change [9]	log2 fold change [10]
SDHD (UniProt O14521) is listed with inactive: 0.086	inactive: -0.043	inactive: 0.127	inactive: 0.296	inactive: 0.056	inactive: 0.018	inactive: -0.033	inactive: -0.019	inactive: -0.027	inactive: -0.082
SELENOH (UniProt Q8IZQ5) is listed with inactive: 0.005	inactive: 0.048	inactive: 0.005	inactive: -0.024	inactive: 0.02	inactive: 0.009	inactive: 0.013	inactive: -0.014	inactive: -0.023	inactive: 0.032
